Data from patent US11090319B2, “Therapeutic uses of pharmaceutical compositions comprising cyclic boronic acid ester derivatives” (Melinta Subsidiary Corp., priority 2010, dated 2021).
Where two headings read alike, the source gives them in different places. The name of at least one read-out is uncertain.

Key:
EC1007 KPC-3 = assay type: cell-based, Escherichia coli
EC1010 CMY-6 = experiment: Tigemonam potentiation assay (MPC@4), class C and D; assay type: cell-based, Escherichia coli
Protocol: (§1) Selected β-lactamase inhibitors were also tested for their ability to potentiate the monobactam tigemonam.

PAM2035 = experiment: as above; assay type: cell-based, Pseudomonas aeruginosa
Protocol: as §1

KP1007 OXA-10 = assay type: cell-based, Klebsiella pneumoniae
Protocol: as §1

KPX1001 OXA-2 = assay type: cell-based
Protocol: as §1

[1] = system: strains expressing class A ESBLs; assay type: cell-based
[2] = system: strains expressing class C and D enzymes; assay type: cell-based

| SMILES | AZT MPC4 KPC-3 EC1007 (EC1007 KPC-3) | AZT MPC4 CTX-M-14 KP1005 [1] | AZT MPC4 CTX-M-15 KP1009 [1] | AZT MPC4 SHV-5 ec308 [1] | AZT MPC4 SHV-12 KP1010 [1] | AZT MPC4 SHV-18 KP1012 [1] | AZT MPC4 TEM-10 EC1009 [1] | AZT MPC4 TEM-10 ec302 [1] | AZT MPC4 TEM-26 ec304 [1] | AZT MPC@4 CMY-6 EC1010 [2] | AZT MPC@4 ECL1002 [2] | AZT MPC@4 OXA-2, KPX1001 [2] | AZT MPC@4 OXA-10, qnrB4 KP1007 [2] | AZT MPC@4 PAM2035 [2] | MPC4 CMY-6, EC1010 (EC1010 CMY-6; tigemonam at 4 μg/mL) | MPC4 PAM2035 (PAM2035; tigemonam at 4 μg/mL) | MPC4 OXA-10, KP1007 (KP1007 OXA-10; tigemonam at 4 μg/mL) | MPC4 OXA-2, KPX1001 (KPX1001 OXA-2; tigemonam at 4 μg/mL) | also measured |
| --- | --- | --- | --- | --- | --- | --- | --- | --- | --- | --- | --- | --- | --- | --- | --- | --- | --- | --- | --- |
| O=C(O)C[C@@H]1CC[C@H](NC(=O)Cc2cccs2)B(O)O1 [Compound 5, 2-((3R,6S)-2-hydroxy-3-(2-(thiophen-2-yl)acetamido)-1,2-oxaborinan-6-yl)acetic acid] | X (key: X: MPC@4 of less than 5 μg/mL; Y: MPC@4 of 5 μg/mL to 20 μg/mL; Z: MPC@4 of greater than 20 μg/mL) | Z (key: X: MPC@4 of less than 5 μg/mL; Y: MPC@4 of 5 μg/mL to 20 μg/mL; Z: MPC@4 of greater than 20 μg/mL) | Y (key: X: MPC@4 of less than 5 μg/mL; Y: MPC@4 of 5 μg/mL to 20 μg/mL; Z: MPC@4 of greater than 20 μg/mL) | Y (key: X: MPC@4 of less than 5 μg/mL; Y: MPC@4 of 5 μg/mL to 20 μg/mL; Z: MPC@4 of greater than 20 μg/mL) | Y (key: X: MPC@4 of less than 5 μg/mL; Y: MPC@4 of 5 μg/mL to 20 μg/mL; Z: MPC@4 of greater than 20 μg/mL) | X (key: X: MPC@4 of less than 5 μg/mL; Y: MPC@4 of 5 μg/mL to 20 μg/mL; Z: MPC@4 of greater than 20 μg/mL) | Y (key: X: MPC@4 of less than 5 μg/mL; Y: MPC@4 of 5 μg/mL to 20 μg/mL; Z: MPC@4 of greater than 20 μg/mL) | Z (key: X: MPC@4 of less than 5 μg/mL; Y: MPC@4 of 5 μg/mL to 20 μg/mL; Z: MPC@4 of greater than 20 μg/mL) | Y (key: X: MPC@4 of less than 5 μg/mL; Y: MPC@4 of 5 μg/mL to 20 μg/mL; Z: MPC@4 of greater than 20 μg/mL) | Y (key: X: MPC@4 of less than 5 μg/mL; Y: MPC@4 of 5 μg/mL to 20 μg/mL; Z: MPC@4 of greater than 20 μg/mL) | Y (key: X: MPC@4 of less than 5 μg/mL; Y: MPC@4 of 5 μg/mL to 20 μg/mL; Z: MPC@4 of greater than 20 μg/mL) | Y (key: X: MPC@4 of less than 5 μg/mL; Y: MPC@4 of 5 μg/mL to 20 μg/mL; Z: MPC@4 of greater than 20 μg/mL) | X (key: X: MPC@4 of less than 5 μg/mL; Y: MPC@4 of 5 μg/mL to 20 μg/mL; Z: MPC@4 of greater than 20 μg/mL) | X (key: X: MPC@4 of less than 5 μg/mL; Y: MPC@4 of 5 μg/mL to 20 μg/mL; Z: MPC@4 of greater than 20 μg/mL) |  |  |  |  | MPC4 CMY-6, EC1010 (EC1010 CMY-6): X (key: X: MPC@4 of less than 2 μg/mL; Y: MPC@4 of 2 μg/mL to 10 μg/mL; Z: MPC@4 of greater than 10 μg/mL); MPC4 PAM2035 (PAM2035): X (key: X: MPC@4 of less than 2 μg/mL; Y: MPC@4 of 2 μg/mL to 10 μg/mL; Z: MPC@4 of greater than 10 μg/mL); MPC4 OXA-10, KP1007 (KP1007 OXA-10): Z (key: X: MPC@4 of less than 2 μg/mL; Y: MPC@4 of 2 μg/mL to 10 μg/mL; Z: MPC@4 of greater than 10 μg/mL); MPC4 OXA-2, KPX1001 (KPX1001 OXA-2): X (key: X: MPC@4 of less than 2 μg/mL; Y: MPC@4 of 2 μg/mL to 10 μg/mL; Z: MPC@4 of greater than 10 μg/mL) |
| N[C@@H](C(=O)N[C@H]1CC[C@@H](CC(=O)O)OB1O)c1ccccc1 [Compound 9] |  |  |  |  |  |  |  |  |  |  |  |  |  |  | Y (MPC@4 of 2 μg/mL to 10 μg/mL) | Y (MPC@4 of 2 μg/mL to 10 μg/mL) | Z (MPC@4 of greater than 10 μg/mL) | X (MPC@4 of less than 2 μg/mL) |  |
| O=C(O)C[C@@H]1CC[C@H](NC(=O)NCc2ccccc2)B(O)O1 [Compound 18] |  |  |  |  |  |  |  |  |  |  |  |  |  |  | X (MPC@4 of less than 2 μg/mL) | X (MPC@4 of less than 2 μg/mL) | Y (MPC@4 of 2 μg/mL to 10 μg/mL) | Y (MPC@4 of 2 μg/mL to 10 μg/mL) |  |
| Nc1nc(/C(=N/OCc2cc(=O)c(O)cn2O)C(=O)N[C@H]2CC[C@@H](CC(=O)O)OB2O)cs1 [Compound 62, 2-((3R)-3-((Z)-2-(2-aminothiazol-4-yl)-2-((1,5-dihydroxy-4-oxo-1,4-dihydropyridin-2-yl)methoxyimino)acetamido)-2-hydroxy-1,2-oxaborinan-6-yl)acetic acid] | Y (key: X: MPC@4 of less than 5 μg/mL; Y: MPC@4 of 5 μg/mL to 20 μg/mL; Z: MPC@4 of greater than 20 μg/mL) | X (key: X: MPC@4 of less than 5 μg/mL; Y: MPC@4 of 5 μg/mL to 20 μg/mL; Z: MPC@4 of greater than 20 μg/mL) | X (key: X: MPC@4 of less than 5 μg/mL; Y: MPC@4 of 5 μg/mL to 20 μg/mL; Z: MPC@4 of greater than 20 μg/mL) | X (key: X: MPC@4 of less than 5 μg/mL; Y: MPC@4 of 5 μg/mL to 20 μg/mL; Z: MPC@4 of greater than 20 μg/mL) | X (key: X: MPC@4 of less than 5 μg/mL; Y: MPC@4 of 5 μg/mL to 20 μg/mL; Z: MPC@4 of greater than 20 μg/mL) | X (key: X: MPC@4 of less than 5 μg/mL; Y: MPC@4 of 5 μg/mL to 20 μg/mL; Z: MPC@4 of greater than 20 μg/mL) | X (key: X: MPC@4 of less than 5 μg/mL; Y: MPC@4 of 5 μg/mL to 20 μg/mL; Z: MPC@4 of greater than 20 μg/mL) | Y (key: X: MPC@4 of less than 5 μg/mL; Y: MPC@4 of 5 μg/mL to 20 μg/mL; Z: MPC@4 of greater than 20 μg/mL) | X (key: X: MPC@4 of less than 5 μg/mL; Y: MPC@4 of 5 μg/mL to 20 μg/mL; Z: MPC@4 of greater than 20 μg/mL) | X (key: X: MPC@4 of less than 5 μg/mL; Y: MPC@4 of 5 μg/mL to 20 μg/mL; Z: MPC@4 of greater than 20 μg/mL) | Z (key: X: MPC@4 of less than 5 μg/mL; Y: MPC@4 of 5 μg/mL to 20 μg/mL; Z: MPC@4 of greater than 20 μg/mL) | Y (key: X: MPC@4 of less than 5 μg/mL; Y: MPC@4 of 5 μg/mL to 20 μg/mL; Z: MPC@4 of greater than 20 μg/mL) | X (key: X: MPC@4 of less than 5 μg/mL; Y: MPC@4 of 5 μg/mL to 20 μg/mL; Z: MPC@4 of greater than 20 μg/mL) | X (key: X: MPC@4 of less than 5 μg/mL; Y: MPC@4 of 5 μg/mL to 20 μg/mL; Z: MPC@4 of greater than 20 μg/mL) |  |  |  |  |  |
